Assay results reported in the supplement of paper PMC10849652.
This is one part of the list.

The chains behind the UniProt entries cited, without tags or fusion partners. Where a name states a change or a piece, a line headed by the entry shows the natural chain unless it says otherwise.
UniProt Q5M7Z0: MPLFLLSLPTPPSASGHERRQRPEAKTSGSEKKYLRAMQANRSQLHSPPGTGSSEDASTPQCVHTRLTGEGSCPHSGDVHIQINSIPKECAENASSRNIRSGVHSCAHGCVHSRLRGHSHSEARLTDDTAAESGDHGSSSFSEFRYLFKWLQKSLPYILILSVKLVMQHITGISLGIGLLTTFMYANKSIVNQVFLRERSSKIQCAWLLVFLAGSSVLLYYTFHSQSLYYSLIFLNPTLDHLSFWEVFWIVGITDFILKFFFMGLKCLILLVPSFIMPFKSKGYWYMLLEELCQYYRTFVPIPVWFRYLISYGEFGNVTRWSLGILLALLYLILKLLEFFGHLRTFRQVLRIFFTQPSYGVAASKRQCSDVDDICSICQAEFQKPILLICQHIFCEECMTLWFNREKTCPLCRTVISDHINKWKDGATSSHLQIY
UniProt Q969K3: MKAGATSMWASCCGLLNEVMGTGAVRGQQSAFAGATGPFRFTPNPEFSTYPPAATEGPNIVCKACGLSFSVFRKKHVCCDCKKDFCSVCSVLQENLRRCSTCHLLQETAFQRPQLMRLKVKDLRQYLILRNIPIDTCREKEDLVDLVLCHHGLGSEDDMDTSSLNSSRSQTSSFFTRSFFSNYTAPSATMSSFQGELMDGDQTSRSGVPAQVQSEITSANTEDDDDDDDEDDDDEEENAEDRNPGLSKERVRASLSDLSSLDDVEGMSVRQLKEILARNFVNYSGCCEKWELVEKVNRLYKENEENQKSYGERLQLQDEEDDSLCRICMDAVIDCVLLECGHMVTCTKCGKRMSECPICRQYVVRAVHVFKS
UniProt Q9NYV6: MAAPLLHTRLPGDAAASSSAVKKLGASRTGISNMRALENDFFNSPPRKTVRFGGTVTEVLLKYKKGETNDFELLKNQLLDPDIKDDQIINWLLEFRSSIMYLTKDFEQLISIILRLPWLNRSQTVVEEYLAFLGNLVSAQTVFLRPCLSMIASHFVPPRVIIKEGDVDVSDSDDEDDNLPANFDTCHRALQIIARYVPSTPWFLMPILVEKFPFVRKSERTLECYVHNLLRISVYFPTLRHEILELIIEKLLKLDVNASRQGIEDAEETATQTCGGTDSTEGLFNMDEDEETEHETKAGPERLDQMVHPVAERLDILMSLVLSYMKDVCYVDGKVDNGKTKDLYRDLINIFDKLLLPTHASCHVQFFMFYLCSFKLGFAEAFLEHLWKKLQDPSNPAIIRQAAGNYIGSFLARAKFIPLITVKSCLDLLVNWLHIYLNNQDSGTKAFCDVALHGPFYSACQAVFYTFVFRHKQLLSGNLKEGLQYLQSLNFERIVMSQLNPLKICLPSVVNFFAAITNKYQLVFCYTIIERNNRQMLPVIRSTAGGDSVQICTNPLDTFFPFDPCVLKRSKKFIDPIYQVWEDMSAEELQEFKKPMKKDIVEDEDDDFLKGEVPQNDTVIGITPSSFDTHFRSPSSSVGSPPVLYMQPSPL
UniProt P60602: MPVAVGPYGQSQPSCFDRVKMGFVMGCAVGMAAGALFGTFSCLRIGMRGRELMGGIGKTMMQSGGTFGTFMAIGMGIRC
UniProt Q9BY78: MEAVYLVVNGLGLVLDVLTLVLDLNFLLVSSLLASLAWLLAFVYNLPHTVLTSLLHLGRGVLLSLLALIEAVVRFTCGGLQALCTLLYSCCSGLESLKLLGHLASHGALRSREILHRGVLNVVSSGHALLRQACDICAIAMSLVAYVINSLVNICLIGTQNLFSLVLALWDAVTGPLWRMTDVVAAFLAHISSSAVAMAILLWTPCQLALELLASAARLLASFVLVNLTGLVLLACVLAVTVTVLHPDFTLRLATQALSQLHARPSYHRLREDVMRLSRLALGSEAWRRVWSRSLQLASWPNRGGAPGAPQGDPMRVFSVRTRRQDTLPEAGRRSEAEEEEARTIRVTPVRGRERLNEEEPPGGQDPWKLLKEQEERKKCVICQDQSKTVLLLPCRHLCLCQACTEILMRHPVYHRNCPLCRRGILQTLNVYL
UniProt P56182: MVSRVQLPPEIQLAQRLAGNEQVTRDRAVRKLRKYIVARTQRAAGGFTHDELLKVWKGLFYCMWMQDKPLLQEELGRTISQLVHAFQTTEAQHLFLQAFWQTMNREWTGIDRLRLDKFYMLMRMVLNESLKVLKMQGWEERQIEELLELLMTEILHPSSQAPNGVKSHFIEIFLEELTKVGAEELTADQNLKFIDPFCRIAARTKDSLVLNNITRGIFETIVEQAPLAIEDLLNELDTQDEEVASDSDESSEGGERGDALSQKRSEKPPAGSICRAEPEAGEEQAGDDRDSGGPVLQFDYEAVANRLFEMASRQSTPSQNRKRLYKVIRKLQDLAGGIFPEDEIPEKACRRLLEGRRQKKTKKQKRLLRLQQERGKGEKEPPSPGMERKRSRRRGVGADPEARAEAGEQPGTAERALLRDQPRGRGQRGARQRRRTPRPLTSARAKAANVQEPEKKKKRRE
UniProt Q99942: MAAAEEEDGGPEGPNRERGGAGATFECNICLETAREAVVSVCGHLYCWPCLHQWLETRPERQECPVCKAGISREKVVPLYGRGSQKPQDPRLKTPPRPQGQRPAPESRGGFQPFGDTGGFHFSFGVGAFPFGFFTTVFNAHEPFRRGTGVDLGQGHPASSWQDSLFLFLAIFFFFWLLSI
UniProt P78317: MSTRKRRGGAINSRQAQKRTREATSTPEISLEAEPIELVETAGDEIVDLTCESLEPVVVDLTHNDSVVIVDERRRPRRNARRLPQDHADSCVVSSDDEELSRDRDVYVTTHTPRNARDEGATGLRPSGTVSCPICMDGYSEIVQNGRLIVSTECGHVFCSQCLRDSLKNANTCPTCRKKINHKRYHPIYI
UniProt Q01974, whole entry, looked up: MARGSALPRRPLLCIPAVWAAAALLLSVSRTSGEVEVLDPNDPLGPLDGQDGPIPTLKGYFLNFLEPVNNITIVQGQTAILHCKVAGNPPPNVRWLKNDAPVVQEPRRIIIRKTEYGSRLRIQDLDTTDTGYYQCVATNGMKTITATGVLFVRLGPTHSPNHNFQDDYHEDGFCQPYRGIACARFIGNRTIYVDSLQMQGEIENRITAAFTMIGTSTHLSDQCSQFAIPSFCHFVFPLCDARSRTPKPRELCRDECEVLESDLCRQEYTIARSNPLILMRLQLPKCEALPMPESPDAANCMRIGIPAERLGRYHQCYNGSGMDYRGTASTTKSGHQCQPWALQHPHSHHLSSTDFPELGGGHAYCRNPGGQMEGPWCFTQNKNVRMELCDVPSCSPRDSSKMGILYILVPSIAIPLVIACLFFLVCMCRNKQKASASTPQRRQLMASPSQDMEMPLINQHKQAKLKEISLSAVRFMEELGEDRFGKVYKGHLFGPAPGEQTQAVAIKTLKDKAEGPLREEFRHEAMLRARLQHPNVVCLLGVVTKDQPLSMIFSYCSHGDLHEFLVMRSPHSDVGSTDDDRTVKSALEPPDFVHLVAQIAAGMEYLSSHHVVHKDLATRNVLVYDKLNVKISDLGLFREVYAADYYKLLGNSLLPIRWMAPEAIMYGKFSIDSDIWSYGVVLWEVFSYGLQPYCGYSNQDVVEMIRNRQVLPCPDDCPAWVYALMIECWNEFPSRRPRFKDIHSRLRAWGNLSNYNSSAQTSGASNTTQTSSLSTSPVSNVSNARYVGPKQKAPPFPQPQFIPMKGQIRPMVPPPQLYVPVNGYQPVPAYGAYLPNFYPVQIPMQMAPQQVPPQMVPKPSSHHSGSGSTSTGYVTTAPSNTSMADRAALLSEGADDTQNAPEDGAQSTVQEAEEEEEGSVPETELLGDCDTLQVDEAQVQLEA
UniProt Q9H7B2: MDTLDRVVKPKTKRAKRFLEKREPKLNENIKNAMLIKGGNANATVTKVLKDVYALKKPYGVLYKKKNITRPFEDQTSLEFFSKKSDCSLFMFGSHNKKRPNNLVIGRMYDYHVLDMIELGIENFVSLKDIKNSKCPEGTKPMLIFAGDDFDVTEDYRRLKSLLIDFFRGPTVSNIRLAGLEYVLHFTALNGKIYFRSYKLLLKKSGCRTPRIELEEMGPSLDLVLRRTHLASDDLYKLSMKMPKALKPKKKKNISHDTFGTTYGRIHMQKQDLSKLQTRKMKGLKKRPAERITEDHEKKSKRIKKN
UniProt Q96AT9: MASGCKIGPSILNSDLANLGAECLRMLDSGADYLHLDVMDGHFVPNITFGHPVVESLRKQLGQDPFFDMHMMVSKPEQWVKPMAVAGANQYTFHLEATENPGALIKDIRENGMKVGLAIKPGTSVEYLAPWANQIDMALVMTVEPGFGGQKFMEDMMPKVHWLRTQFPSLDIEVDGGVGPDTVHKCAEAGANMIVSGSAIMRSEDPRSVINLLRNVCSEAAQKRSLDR
UniProt Q9UBS0: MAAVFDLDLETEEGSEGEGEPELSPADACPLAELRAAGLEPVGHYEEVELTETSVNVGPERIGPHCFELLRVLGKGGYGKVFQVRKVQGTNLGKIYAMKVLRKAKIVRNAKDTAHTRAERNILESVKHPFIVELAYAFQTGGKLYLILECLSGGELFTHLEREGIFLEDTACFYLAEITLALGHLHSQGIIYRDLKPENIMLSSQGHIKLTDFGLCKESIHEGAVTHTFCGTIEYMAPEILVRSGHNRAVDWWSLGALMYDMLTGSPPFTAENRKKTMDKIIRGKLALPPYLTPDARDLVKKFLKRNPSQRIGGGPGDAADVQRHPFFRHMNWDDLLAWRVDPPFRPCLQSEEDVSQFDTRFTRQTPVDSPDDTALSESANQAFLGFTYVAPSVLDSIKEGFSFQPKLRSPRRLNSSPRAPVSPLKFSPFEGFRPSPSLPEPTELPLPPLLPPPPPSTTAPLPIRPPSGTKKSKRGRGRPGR
UniProt Q5VT52: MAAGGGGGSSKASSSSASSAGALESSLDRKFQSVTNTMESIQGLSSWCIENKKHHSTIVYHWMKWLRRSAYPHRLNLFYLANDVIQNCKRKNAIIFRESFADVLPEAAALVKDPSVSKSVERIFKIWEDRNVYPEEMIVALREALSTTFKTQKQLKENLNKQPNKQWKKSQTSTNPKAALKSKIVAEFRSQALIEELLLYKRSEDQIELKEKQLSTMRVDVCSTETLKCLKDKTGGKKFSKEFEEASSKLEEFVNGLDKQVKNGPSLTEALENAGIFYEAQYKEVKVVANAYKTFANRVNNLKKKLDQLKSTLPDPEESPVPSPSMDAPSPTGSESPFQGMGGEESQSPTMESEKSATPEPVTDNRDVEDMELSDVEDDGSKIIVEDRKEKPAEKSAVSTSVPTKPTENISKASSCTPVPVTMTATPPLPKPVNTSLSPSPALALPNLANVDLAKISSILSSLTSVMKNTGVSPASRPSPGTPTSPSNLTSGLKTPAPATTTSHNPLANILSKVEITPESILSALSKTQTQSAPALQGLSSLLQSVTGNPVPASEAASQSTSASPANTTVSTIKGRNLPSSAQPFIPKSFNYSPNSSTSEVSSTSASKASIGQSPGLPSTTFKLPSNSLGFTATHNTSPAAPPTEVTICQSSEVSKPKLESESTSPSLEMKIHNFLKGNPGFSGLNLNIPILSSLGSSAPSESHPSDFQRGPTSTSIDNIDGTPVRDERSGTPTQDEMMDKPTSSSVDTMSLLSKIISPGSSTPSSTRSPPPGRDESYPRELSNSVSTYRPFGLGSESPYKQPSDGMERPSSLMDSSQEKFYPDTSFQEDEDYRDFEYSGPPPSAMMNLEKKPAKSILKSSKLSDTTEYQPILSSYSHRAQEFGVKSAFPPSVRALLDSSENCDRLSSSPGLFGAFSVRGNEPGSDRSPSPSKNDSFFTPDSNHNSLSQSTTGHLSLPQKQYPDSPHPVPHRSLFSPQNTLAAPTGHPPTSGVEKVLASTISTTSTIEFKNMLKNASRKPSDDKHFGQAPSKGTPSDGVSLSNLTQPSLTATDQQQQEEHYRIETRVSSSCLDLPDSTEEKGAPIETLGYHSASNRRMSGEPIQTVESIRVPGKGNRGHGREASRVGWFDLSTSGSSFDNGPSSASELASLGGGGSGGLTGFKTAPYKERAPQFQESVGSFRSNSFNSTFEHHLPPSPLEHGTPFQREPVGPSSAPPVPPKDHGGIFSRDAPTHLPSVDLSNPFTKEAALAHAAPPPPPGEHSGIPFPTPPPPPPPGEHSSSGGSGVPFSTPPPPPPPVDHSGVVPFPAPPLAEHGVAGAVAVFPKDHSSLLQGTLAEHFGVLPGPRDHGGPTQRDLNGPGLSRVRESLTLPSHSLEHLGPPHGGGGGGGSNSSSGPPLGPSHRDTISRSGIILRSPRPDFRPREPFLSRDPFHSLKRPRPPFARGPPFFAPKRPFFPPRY
UniProt Q96CM3: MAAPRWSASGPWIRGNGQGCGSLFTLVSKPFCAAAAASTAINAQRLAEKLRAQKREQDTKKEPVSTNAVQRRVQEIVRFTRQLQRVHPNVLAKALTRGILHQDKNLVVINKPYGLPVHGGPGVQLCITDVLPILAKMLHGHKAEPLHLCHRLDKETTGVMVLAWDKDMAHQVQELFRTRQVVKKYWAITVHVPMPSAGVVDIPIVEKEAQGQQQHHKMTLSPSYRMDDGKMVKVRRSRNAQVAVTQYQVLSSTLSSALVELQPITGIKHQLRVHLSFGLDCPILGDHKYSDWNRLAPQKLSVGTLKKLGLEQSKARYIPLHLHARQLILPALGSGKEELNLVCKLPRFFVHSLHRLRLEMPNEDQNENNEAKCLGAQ

Columns and labels:
Test in all cases: log2 fold change, soluble protein after heating vs DMSO (PISA); higher = thermal stabilisation; K562 cells, 10 uM, 30 min; active = over 0.2 and 3.5 SD of the protein, either way, in both replicates (recomputed)
saracatinib = compound: CN1CCN(CCOc2cc(OC3CCOCC3)c3c(Nc4c(Cl)ccc5c4OCO5)ncnc3c2)CC1 [saracatinib]
Summary of the method: (§1)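 K562 cells at 2×10^6 cells/mL were exposed to 10 μM compound for 30 min, then aliquots were heated for 3 min across 48°C-58°C, pooled, and extracted in PBS containing 0.5% NP-40 at 4°C. The supernatant after 21,000xg for 90 min was taken as soluble protein and measured by TMTpro 16plex LC-MS/MS with channel sums equalised. Thermal stability is reported relative to control samples, with values from duplicates. Fold changes are given on a log2 scale.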

sotrastaurin = compound: CN1CCN(c2nc(C3=C(c4c[nH]c5ccccc45)C(=O)NC3=O)c3ccccc3n2)CC1 [sotrastaurin]
Summary of the method: as §1

Tubastatin A = compound: CN1CCc2c(c3ccccc3n2Cc2ccc(C(=O)NO)cc2)C1 [Tubastatin A]
Summary of the method: as §1

[1] = compound: CNC(=O)C1=CC=CC=C1NC2=NC(=NC=C2Cl)NC3=C(C=C(C=C3)N4CCOCC4)OC
Summary of the method: as §1

defactinib = compound: CNC(=O)c1ccc(Nc2ncc(C(F)(F)F)c(NCc3nccnc3N(C)S(C)(=O)=O)n2)cc1 [defactinib]
Summary of the method: as §1

[2] = compound: CNc1nc(-c2ccc3c(N)n[nH]c3c2)cc(N2C[C@@H](C(=O)NC3CCCCC3)CC[C@H]2C)n1
Summary of the method: as §1

[3] = compound: COC(=O)[C@H](CCSC)NC(=O)C1=C(C=C(C=C1)NC[C@H](CS)N)C2=CC=CC=C2
Summary of the method: as §1

rucaparib = compound: CNCc1ccc(-c2[nH]c3cc(F)cc4c3c2CCNC4=O)cc1 [rucaparib]
Summary of the method: as §1

encorafenib = compound: COC(=O)N[C@@H](C)CNc1nccc(-c2cn(C(C)C)nc2-c2cc(Cl)cc(NS(C)(=O)=O)c2F)n1 [encorafenib]
Summary of the method: as §1

alvocidib = compound: CN1CC[C@H](c2c(O)cc(O)c3c(=O)cc(-c4ccccc4Cl)oc23)[C@H](O)C1 [alvocidib]
Summary of the method: as §1

Measured: log2 fold change

RPRD1A (UniProt Q96P16)
inactive: saracatinib -0.259 | sotrastaurin 0.058 | Tubastatin A 0.106 | [1] -0.101 | defactinib -0.179 | [2] -0.054 | [3] 0.043

RPL7L1 (UniProt Q6DKI1)
inactive: saracatinib 0.028 | defactinib 0.242 | rucaparib 0.403 | [2] 0.031 | encorafenib 0.135 | [3] -0.087

RPS7, A0A2R8Y623
inactive: sotrastaurin 0.374 | Tubastatin A 0.136 | [1] -0.214 | defactinib -0.162 | rucaparib -0.098 | encorafenib -0.421 | [3] -0.294

RPS6KA3 (UniProt P51812)
inactive: saracatinib 0.021 | sotrastaurin -0.049 | Tubastatin A 0.019 | defactinib -0.148 | rucaparib 0.006 | [2] -0.049 | encorafenib -0.01 | [3] -0.027

RPP30 (UniProt Q5VU11)
inactive: saracatinib -0.308 | [1] -0.241 | [2] 0.016

RNFT1 (UniProt Q5M7Z0)
inactive: [1] -0.039

RNF34 isoform 2 (UniProt Q969K3)
inactive: saracatinib -0.048 | alvocidib -0.061 | Tubastatin A 0.143 | [1] -0.033 | defactinib -0.084 | rucaparib 0.065 | [2] 0.1 | encorafenib -0.064 | [3] 0.067

RRN3 (UniProt Q9NYV6)
inactive: [1] -0.158 | rucaparib 0.144 | encorafenib -0.004

ROS1 (UniProt P08922)
inactive: sotrastaurin 0.13 | alvocidib 0.048 | [1] -0.154 | rucaparib -0.208 | encorafenib 0.018

RNF31 (UniProt Q96EP0)
inactive: sotrastaurin -0.303 | Tubastatin A -0.22 | [1] -0.015 | defactinib -0.027 | [3] -0.036

RPS21 (UniProt P63220)
inactive: saracatinib -0.017 | sotrastaurin 0.005 | Tubastatin A 0.246 | [1] 0.039 | defactinib 0.052 | rucaparib -0.039 | [2] -0.001 | encorafenib 0.021 | [3] 0.027

RPS3A (UniProt D6R9B6)
inactive: saracatinib -0.125 | sotrastaurin 0.202 | Tubastatin A 0.051 | [2] -0.086

RPLP0 (UniProt F8VWV4)
inactive: sotrastaurin 0.177 | alvocidib 0.15 | Tubastatin A 0.101

RPL10 (UniProt F8W7C6)
inactive: sotrastaurin -0.016 | alvocidib 0.324 | Tubastatin A 0.106 | [1] 0.024 | defactinib 0.242 | rucaparib 0.092 | encorafenib 0.136 | [3] -0.001

RPS18 (UniProt P62269)
inactive: saracatinib -0.022 | sotrastaurin 0.039 | Tubastatin A 0.105 | [1] 0.071 | defactinib 0.21 | rucaparib 0.152 | [2] 0.041 | encorafenib 0.008 | [3] 0.04

RPS25 (UniProt P62851)
inactive: saracatinib -0.052 | sotrastaurin 0.007 | Tubastatin A 0.094 | [1] 0.095 | defactinib 0.184 | rucaparib 0.124 | [2] 0.076 | encorafenib 0.01 | [3] 0.024

RPAP2 (UniProt Q8IXW5)
inactive: sotrastaurin 0.017 | alvocidib -0.396 | Tubastatin A 0.024 | [1] -0.025

RPS13 (UniProt P62277)
inactive: saracatinib -0.149 | sotrastaurin 0 | Tubastatin A 0.106 | [1] 0.097 | defactinib 0.339 | rucaparib 0.261 | [2] 0.111 | encorafenib 0.137 | [3] 0.031

RPGR (UniProt Q92834)
inactive: Tubastatin A -0.115

ROMO1 (UniProt P60602)
inactive: saracatinib 0.022 | sotrastaurin -0.091 | Tubastatin A 0.048 | [1] 0.013 | rucaparib -0.038 | [2] -0.012 | encorafenib 0.026

RNF26 (UniProt Q9BY78)
inactive: defactinib 0.119 | [3] 0.292

RPS3 (UniProt E9PJN9)
inactive: saracatinib -0.069 | Tubastatin A 0.105 | rucaparib 0.064 | [2] -0.028 | encorafenib 0.052

RRP1 (UniProt P56182)
inactive: [1] -0.085 | defactinib 0.053 | [3] -0.038

RPS3A (UniProt P61247)
inactive: saracatinib -0.034 | sotrastaurin 0.015 | Tubastatin A 0.075 | [1] 0.105 | defactinib 0.192 | rucaparib 0.101 | [2] 0.069 | encorafenib 0.047 | [3] -0.018

RNF5 (UniProt Q99942)
inactive: sotrastaurin -0.115 | alvocidib -0.019 | Tubastatin A -0.163 | [1] -0.036 | defactinib -0.007 | rucaparib 0.006 | encorafenib 0.053 | [3] 0.012

RNF4 (UniProt P78317)
inactive: sotrastaurin -0.091 | Tubastatin A 0.05 | [1] -0.09

RPS19 (UniProt M0R2L9)
inactive: Tubastatin A -0.186

RPAIN isoform 8 (UniProt Q86UA6)
inactive: saracatinib -0.036 | sotrastaurin -0.09 | Tubastatin A -0.016 | defactinib -0.231 | [2] -0.082 | [3] 0.094

ROR2 (UniProt Q01974)
inactive: saracatinib 0.034 | sotrastaurin -0.071 | Tubastatin A -0.025 | [1] -0.023 | defactinib -0.107 | rucaparib -0.012 | [2] 0.084 | encorafenib 0.03 | [3] -0.121

RPF2 (UniProt Q9H7B2)
inactive: [1] -0.167

RPE (UniProt Q96AT9)
inactive: saracatinib 0.029 | alvocidib 0.07 | Tubastatin A 0.01 | [1] 0.022 | defactinib -0.099 | rucaparib 0.005 | [2] -0.053 | encorafenib -0.012 | [3] -0.052

RPS6KB2 (UniProt Q9UBS0)
inactive: alvocidib -0.223 | Tubastatin A -0.199 | [1] 0.165

RPL22L1 (UniProt Q6P5R6)
inactive: sotrastaurin -0.016 | [1] 0.044 | rucaparib 0.084 | encorafenib -0.406

RPRD2 (UniProt Q5VT52)
inactive: Tubastatin A 0.252 | [1] 0.062 | defactinib -0.14 | [3] -0.142

ROCK1 (UniProt Q13464)
inactive: saracatinib -0.006 | sotrastaurin -0.056 | Tubastatin A -0.009 | [1] -0.016 | defactinib -0.023 | rucaparib 0.021 | [2] 0.122 | encorafenib 0.031 | [3] -0.015

RPS6KA5 (UniProt O75582)
inactive: [1] 0.083 | rucaparib 0.135 | encorafenib 0.148

RPL38 (UniProt P63173)
inactive: saracatinib -0.018 | sotrastaurin 0.01 | Tubastatin A 0.014 | [1] 0.027 | defactinib 0.126 | rucaparib 0.093 | [2] 0.044 | encorafenib 0.003 | [3] 0.037

RNF41 (UniProt Q9H4P4)
inactive: rucaparib -0.087 | encorafenib -0.016

7 successive entries from above, quoted:
RPF2 (UniProt Q9H7B2)
inactive: [1] -0.167

RPE (UniProt Q96AT9)
inactive: saracatinib 0.029 | alvocidib 0.07 | Tubastatin A 0.01 | [1] 0.022 | defactinib -0.099 | rucaparib 0.005 | [2] -0.053 | encorafenib -0.012 | [3] -0.052

RPS6KB2 (UniProt Q9UBS0)
inactive: alvocidib -0.223 | Tubastatin A -0.199 | [1] 0.165

RPL22L1 (UniProt Q6P5R6)
inactive: sotrastaurin -0.016 | [1] 0.044 | rucaparib 0.084 | encorafenib -0.406

RPRD2 (UniProt Q5VT52)
inactive: Tubastatin A 0.252 | [1] 0.062 | defactinib -0.14 | [3] -0.142

ROCK1 (UniProt Q13464)
inactive: saracatinib -0.006 | sotrastaurin -0.056 | Tubastatin A -0.009 | [1] -0.016 | defactinib -0.023 | rucaparib 0.021 | [2] 0.122 | encorafenib 0.031 | [3] -0.015

RPS6KA5 (UniProt O75582)
inactive: [1] 0.083 | rucaparib 0.135 | encorafenib 0.148

The list continues.

RPUSD4 (UniProt Q96CM3)
inactive: sotrastaurin -0.037 | alvocidib -0.043 | Tubastatin A 0.081
